The supplement of paper PMC12578635
Some of the results follow. No stated cut-off is given here; in the data, active = 150% or more and inactive = the rest. Many values rest on one well or one pass, so single values are uncertain.

What follows are molecules tested on Staphylococcus aureus JE2-lux inside RAW 264.7 macrophages (assay: intracellular bacterial bioluminescence relative to DMSO vehicle; higher = higher intracellular bacterial metabolic activity). Conditions: 10 µM; treatment time 4 h; gentamicin 50 µg/ml.

Intracellular bacterial bioluminescence, inactive:
COC(=O)c1ccccc1NC(=O)c1cnc2c(-c3ccccc3)c(C)nn2c1C 113%, O=C(NCc1cccnc1)c1ncoc1-c1cccc(Cl)c1 86.2%, CSc1ccccc1NC(=O)c1cnc2n(c1=O)CCS2 92.4%, O=C(CSc1nc(-c2ccccc2)c2ccccc2n1)NCc1ccc2c(c1)OCO2 73.9%, Cn1ncc2c(NCc3ccccc3)nc(NC3CCCC3)nc21 92.3%, Clc1ccc(Cl)c2sc(N3CCOCC3)nc12 85.4%, COc1ccccc1OCCN(C)C(=O)c1sc2ncn(C)c(=O)c2c1C 98.9%, O=c1nc(SCc2c(F)cccc2Cl)c2c([nH]1)CCC2 122%, CCOC(=O)c1c(C)oc2c1cc(NS(=O)(=O)c1cccc3cccnc13)c1ccccc12 76.6%, CCc1cccc(CC)c1NC(=O)CSc1nnc(NC(=O)c2ccco2)s1 112%, O=C(c1ccc(-c2nc(-c3ccccc3)no2)cc1)N1CCn2c1nc1ccccc12 93.9%, CC(C(=O)N1CCOCC1)C1CCN(C(=O)c2cc3ccccc3[nH]2)CC1 (configuration not stated) 72.7%, N#Cc1cc2cc3c(cc2nc1SCC(=O)NCC1CCCO1)OCCO3 (configuration not stated) 113%, CCc1c(C)nc(SCC(=O)Nc2cc(C)on2)[nH]c1=O 83.4%, CCOC(=O)c1sc(NC(=O)c2cccc(C)c2)cc1C 68.2%, Cn1c(SCC(=O)Nc2nc3ccccc3s2)nnc1-c1ccccc1 89.6%, Cc1ccc(NC(=O)CCN2C(=O)/C(=C\c3ccco3)SC2=S)c(C)c1 113%, O=C(CSc1nc(=O)n(CC2CCCO2)c2c1CCCC2)Nc1ccc([N+](=O)[O-])cc1 (configuration not stated) 71.5%, COc1ccc(CN2CC3=C(C2=O)C(c2ccc(Cl)cc2)NC(=O)N3)cc1 (configuration not stated) 5.7%, Cc1cc2nnc(SCC(=O)Nc3ccc4c(c3)OCO4)n2c2ccccc12 56.6%, N#C/C(=C/c1ccc(Cl)cc1)C(=O)Nc1sc2c(c1C(N)=O)CCCC2 119%, CCOc1ccc(C)cc1S(=O)(=O)Nc1ccc2c(c1)C(=O)Nc1ccccc1O2 130%, O=C(OC(C(=O)NCc1ccc(F)cc1)c1ccc2ncccc2c1)c1cccs1 (configuration not stated) 94.2%, O=c1c2cnn(CCO)c2ncn1Cc1ccccc1Cl 112%, CCOc1ccc(Cn2c(=O)c3sccc3n3c(=S)[nH]nc23)cc1OCC 128%, COC(=O)c1ccc(CSc2nc(N)c3c4c(sc3n2)CCC4)cc1 89%, CCCN1C(=O)/C(=C2\SC(=N)NC2=O)c2cc(Br)ccc21 103%, Cc1cc(C)c2cc(CNCc3ccccc3C)c3nn(C)c(=O)n3c2c1 53.6%, O=C(NC1CCCC1)C(c1ccc2ncccc2c1)N(Cc1cccs1)C(=O)c1ccc(O)cc1 (configuration not stated) 84.1%, COc1cccc(CNC(=O)CSc2nnc3ccc(C(=O)NCc4ccccc4)cn23)c1 94.1%, O=C(COc1ccc(Cl)cc1Cl)Nc1nnc2n1CCS2 113%, COc1ccc(-c2nnc(Nc3ccc4c(c3)OCO4)[nH]c2=O)cc1 94.8%, Cc1ccc(S(=O)(=O)n2nc(-c3ccc(C)c(C)c3)nc2N)cc1 16.6%, CCc1ccc(Nc2nc(C)c3ncn(-c4ccc(CC)cc4)c3n2)cc1 90.5%, COCCn1c(SCC(=O)Nc2nccs2)nnc1-c1c[nH]c2ccccc12 99.2%, CCOC(=O)C1=C(C)N=c2s/c(=C3\C(=O)Nc4ccccc43)c(=O)n2C1c1cccs1 (configuration not stated) 102%, COc1ccc(-c2nn(Cc3ccc(C)cc3)c(=O)c3noc(C)c23)cc1 97.4%, Cc1nn(Cc2noc(-c3cc4ccccc4[nH]3)n2)c(C)c1S(=O)(=O)N1CCCC1 71.9%, Cc1cccn2c(=O)nc(SCC(=O)N(C(C)C)C(C)C)nc12 120%, O=C(COc1ccccc1)Nc1ccc(-c2cn3ccccc3n2)cc1 73.6%, Cc1cnn(Cc2ccccc2)c1NC(=O)c1ncoc1-c1ccc(F)cc1 89.6%, Brc1cccc2sc(N3CCOCC3)nc12 101%, CC(=O)Nc1ccc(C(O)CN2CCC3(CC2)CC(O)c2cc(C)c(C)cc2O3)cc1 (configuration not stated) 130%, Cc1ccc2c(c1)/C(=N/NC(=O)CCCCCC(=O)N/N=C1/C(=O)Nc3ccc(C)cc31)C(=O)N2 108%, CCOC(=O)c1ccsc1NC(=O)c1ccc2ncsc2c1 91.6%, O=C1CC(c2nc3ccccc3[nH]2)CN1c1cccc(C(F)(F)F)c1 (configuration not stated) 44.3%, CCN1CCN(c2ccc(N3CCN(C(=O)c4ccc(C(F)(F)F)cc4)CC3)nn2)CC1 116%, Cc1nc(OCC(=O)NC2CCS(=O)(=O)C2)c2c(C)c(C)oc2n1 (configuration not stated) 108%, Cc1oc(-c2ccno2)cc1S(=O)(=O)N1CCN(c2ccc(F)cc2)CC1 105%, O=C(OCc1ccco1)c1cc2cc(Br)ccc2oc1=O 133%, CC1CN(C(=O)Cn2cnc3c(cnn3-c3cccc(Cl)c3)c2=O)CC(C)O1 (configuration not stated) 120%, O=C(Cn1ncn2nc(-c3ccccc3)cc2c1=O)NCC1CCCO1 (configuration not stated) 86.3%, O=C(NCC1CCCO1)C1CCCN(c2nccnc2Oc2ccccc2)C1 (configuration not stated) 93%, O=C(NCCCc1ccccc1)C(=O)NC1CCCC1 107%, Cc1ccc(NC(=O)CN2C(=O)C(=O)c3ccccc32)c(C)c1 90.9%, Cc1cc(=O)n2nc(NCc3ccc(C(=O)NCc4ccccc4F)cc3)nc2[nH]1 123%, CCc1ccc(NC(=O)C2CC3CSCN3C23C(=O)N(CC)c2ccccc23)cc1 (configuration not stated) 89.9%, CCSc1nsc(NC(=O)Nc2ccc(OC)c(OC)c2)n1 70%, COC(=O)C1=C(NC(=O)c2cccc([N+](=O)[O-])c2)CCS1 80.4%, O=C(NCc1cccnc1)c1cnc(N2CCCCC2)c2ccccc12 106%, COc1ccc2c(c1)c1nnc(SCC(=O)NC3CCCCC3C)nc1n2C (configuration not stated) 83.2%, Cc1nc2cc(-c3noc(C(C)Oc4ccccc4)n3)ccc2n(C)c1=O (configuration not stated) 117%, CCOC(=O)c1ccc(NC(=O)/N=c2\c3ccccc3[nH]c(=O)n2C(C)C)cc1 94.1%, COc1ccc(CCNC(=O)c2cnc3sccn3c2=O)cc1OC 89.4%, COc1cc(OC)cc(C(=O)NNc2nc3ccc(Cl)cc3s2)c1 69.5%, COc1ccc(OC)c(C(=O)CSc2nnc3ncccn23)c1 110%, O=C(CSc1nc(-c2ccco2)nc2cc(=O)[nH]n12)NCC1CCCO1 (configuration not stated) 121%, COc1ccc(CC(=O)n2nc(-c3ccccc3Cl)nc2N)cc1OC 110%, COc1ccc(-c2ccc(SCC(=O)Nc3c[nH]c(=O)[nH]c3=O)nn2)cc1 114%, O=C(CN1CCC(C(=O)c2ccc(F)cc2)CC1)Nc1cccc2ccccc12 94.1%, COc1cc(-c2noc(CCCn3c(=O)[nH]c4cc5c(cc4c3=O)OCO5)n2)ccc1OC(C)C 105%, Cc1nn(-c2ccc3nncn3n2)c2c1C(c1ccccc1OC1CCCC1)CC(=O)N2 (configuration not stated) 74.7%, Cc1oc2nc(SCC(=O)NC3CCCCC3)nc(N)c2c1C 91.7%, COc1ccc(NS(=O)(=O)c2ccc(CCN3C(=O)c4cccc5cccc(c45)C3=O)cc2)cc1 89.1%, Cc1cccc(Oc2ncnc(N)c2[N+](=O)[O-])c1C 90.4%, CC(C)(C)C1=NN(CC(=O)Nc2nccs2)C(=O)c2cc3ccccc3n2C1 118%, COc1ccc(/C=C2/SC(Nc3cccnc3)=NC2=O)cc1OC 90.4%, COc1ccc2cc(C(N)=O)/c(=N/c3cccc(C)c3)oc2c1 61.2%, CCc1ccc(N(CC(=O)Nc2ccccc2OC)C2=NC3CS(=O)(=O)CC3S2)cc1 (configuration not stated) 86.5%, COc1cc(C(=O)N2CCN=C2SCc2ccc([N+](=O)[O-])cc2)cc(OC)c1OC 23%, O=C(c1ccccc1F)N1CCc2c(nc(N3CCOCC3)[nH]c2=O)C1 96.6%, Cc1ccc(C(=O)CSc2nccn(-c3ccc(Cl)cc3)c2=O)cc1 105%, COc1cc(OC)c(NC(=O)c2c(-c3ccccc3)nnc3ccc(C)cc23)cc1Cl 118%, Cc1nc(OCC(=O)Nc2cc(F)ccc2F)c2c(C)c(C)oc2n1 71%, Cc1cccn2c(=O)nc(SCc3c(F)cccc3Cl)nc12 80.3%, CCOC(=O)c1nc(NC(C)c2ccccc2)c2c(-c3ccc(F)cc3)noc2n1 (configuration not stated) 55.2%, NC(=O)c1nc(Nc2ccccc2)sc1NC(=O)Cc1cccs1 81.9%, CC(=O)N1CCCN(C(=O)c2ncoc2-c2ccc(F)cc2)CC1 93.5%, Cc1nc(N2CCC(C(=O)NCCc3ccc(Cl)cc3)CC2)c2c(C)c(C)oc2n1 35.3%, Cc1cccc(C2CCCN2C(=O)c2cnn3cc(Br)cnc23)c1 (configuration not stated) 105%, COC(=O)c1ccc(C(=O)Nc2ccc(N3CCC(C)CC3)c(C(N)=O)c2)s1 89.1%, S=C(NCc1ccccc1)N1CCCC(c2nc3ccccc3[nH]2)C1 (configuration not stated) 114%
